Measurements: article PMC12623996
Where two headings read alike, the source gives them in different places. These are yes or no findings as the source states them, for the method shown. In cells and extracts the contact can be indirect. Some results given as binding are weak or reduced against the parent protein; the word gives no strength. For some assays here: Where a sequence is shown, tags or fusion partners need not be part of it.

The chains behind the UniProt entries cited, without tags or fusion partners. Residues count along the entry.
UniProt P02545, residues 1-646: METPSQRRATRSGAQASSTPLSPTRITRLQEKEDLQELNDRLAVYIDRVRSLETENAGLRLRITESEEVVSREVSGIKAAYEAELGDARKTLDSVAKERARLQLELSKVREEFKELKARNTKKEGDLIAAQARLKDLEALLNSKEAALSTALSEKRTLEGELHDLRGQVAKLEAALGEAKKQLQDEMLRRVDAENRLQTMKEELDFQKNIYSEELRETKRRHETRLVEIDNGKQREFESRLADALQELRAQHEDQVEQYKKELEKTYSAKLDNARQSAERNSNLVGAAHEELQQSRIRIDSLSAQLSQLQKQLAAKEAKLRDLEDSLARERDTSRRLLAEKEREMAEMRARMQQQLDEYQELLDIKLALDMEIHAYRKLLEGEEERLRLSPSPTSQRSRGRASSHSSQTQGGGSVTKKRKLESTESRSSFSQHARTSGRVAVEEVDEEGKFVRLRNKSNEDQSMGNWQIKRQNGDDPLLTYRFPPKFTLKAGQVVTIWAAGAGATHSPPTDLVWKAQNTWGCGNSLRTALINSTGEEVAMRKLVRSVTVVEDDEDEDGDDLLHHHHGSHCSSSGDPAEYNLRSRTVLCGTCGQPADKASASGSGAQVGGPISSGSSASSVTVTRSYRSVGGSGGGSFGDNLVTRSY

Tests used:
[1] = target: T1, Succinate-coenzyme A (CoA) ligase GDP-forming subunit beta (SUCLG2) (human (endogenous in LN229)) (UniProt Q96I99); test: co-IP; endogenous proteins; protein A/G beads coated with antibody (anti-SUCLG2 A8976, anti-LMNA ab226198) or control IgG, incubated with cell lysate overnight at 4 °C; western blot
T1 sequence: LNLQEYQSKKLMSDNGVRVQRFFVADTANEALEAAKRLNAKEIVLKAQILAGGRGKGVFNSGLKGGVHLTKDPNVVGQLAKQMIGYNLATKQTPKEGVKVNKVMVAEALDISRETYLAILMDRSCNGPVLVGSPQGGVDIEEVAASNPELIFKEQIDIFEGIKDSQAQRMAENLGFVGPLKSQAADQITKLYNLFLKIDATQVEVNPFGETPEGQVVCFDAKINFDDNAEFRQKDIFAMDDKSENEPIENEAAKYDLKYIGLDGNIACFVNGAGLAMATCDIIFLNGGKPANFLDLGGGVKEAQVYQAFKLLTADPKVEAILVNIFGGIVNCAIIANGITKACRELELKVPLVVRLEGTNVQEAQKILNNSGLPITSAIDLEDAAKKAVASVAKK

[2] = target: T1, Succinate-coenzyme A (CoA) ligase GDP-forming subunit beta (SUCLG2) (human (endogenous in LN229)); test: as above; remark: listed apart in the source
rLMNA-FLAG WT = rLMNA-FLAG WT (UniProt P02545); test: co-IP; LMNA-depleted LN229 and U251 cells transiently transfected with HA-SUCLG2 and rLMNA-FLAG WT or K470R; IP with anti-FLAG antibody, western blot; interaction enhanced after treatment with NAM and TSA (Fig. S3C)
[3] = target: LMNA K470 acetylated (human (endogenous in LN229 and U251)) (UniProt P02545); test: pull-down; in vitro FLAG-SUCLG2 pull-down with equal amounts of K470-acetylated LMNA and LMNA WT immunoprecipitated and purified from LN229 and U251 cells; cells treated with TSA (10 mM) and NAM (10 mM) for 16 h
[4] = target: lamin A (LMNA) (human (endogenous in LN229 and U251)) (UniProt P02545); test: as above

lamin A (LMNA) (from UniProt P02545 1-646)
binding [1]: binds

B1: dihydrolipoamide acetyltransferase (DLAT) (protein, UniProt P10515 87-647)
chain: SLPPHQKVPLPSLSPTMQAGTIARWEKKEGDKINEGDLIAEVETDKATVGFESLEECYMAKILVAEGTRDVPIGAIICITVGKPEDIEAFKNYTLDSSAAPTPQAAPAPTPAATASPPTPSAQAPGSSYPPHMQVLLPALSPTMTMGTVQRWEKKVGEKLSEGDLLAEIETDKATIGFEVQEEGYLAKILVPEGTRDVPLGTPLCIIVEKEADISAFADYRPTEVTDLKPQVPPPTPPPVAAVPPTPQPLAPTPSAPCPATPAGPKGRVFVSPLAKKLAVEKGIDLTQVKGTGPDGRITKKDIDSFVPSKVAPAPAAVVPPTGPGMAPVPTGVFTDIPISNIRRVIAQRLMQSKQTIPHYYLSIDVNMGEVLLVRKELNKILEGRSKISVNDFIIKASALACLKVPEANSSWMDTVIRQNHVVDVSVAVSTPAGLITPIVFNAHIKGVETIANDVVSLATKAREGKLQPHEFQGGTFTISNLGMFGIKNFSAIINPPQACILAIGASEDKLVPADNEKGFDVASMMSVTLSCDHRVVDGAVGAQWLAEFRKYLEKPITMLL
binding [2]: binds

B2: HA-SUCLG2 (protein, UniProt Q96I99 38-432)
chain: LNLQEYQSKKLMSDNGVRVQRFFVADTANEALEAAKRLNAKEIVLKAQILAGGRGKGVFNSGLKGGVHLTKDPNVVGQLAKQMIGYNLATKQTPKEGVKVNKVMVAEALDISRETYLAILMDRSCNGPVLVGSPQGGVDIEEVAASNPELIFKEQIDIFEGIKDSQAQRMAENLGFVGPLKSQAADQITKLYNLFLKIDATQVEVNPFGETPEGQVVCFDAKINFDDNAEFRQKDIFAMDDKSENEPIENEAAKYDLKYIGLDGNIACFVNGAGLAMATCDIIFLNGGKPANFLDLGGGVKEAQVYQAFKLLTADPKVEAILVNIFGGIVNCAIIANGITKACRELELKVPLVVRLEGTNVQEAQKILNNSGLPITSAIDLEDAAKKAVASVAKK
binding (rLMNA-FLAG WT): binds

B3: FLAG-SUCLG2 (protein, UniProt Q96I99 38-432)
chain: LNLQEYQSKKLMSDNGVRVQRFFVADTANEALEAAKRLNAKEIVLKAQILAGGRGKGVFNSGLKGGVHLTKDPNVVGQLAKQMIGYNLATKQTPKEGVKVNKVMVAEALDISRETYLAILMDRSCNGPVLVGSPQGGVDIEEVAASNPELIFKEQIDIFEGIKDSQAQRMAENLGFVGPLKSQAADQITKLYNLFLKIDATQVEVNPFGETPEGQVVCFDAKINFDDNAEFRQKDIFAMDDKSENEPIENEAAKYDLKYIGLDGNIACFVNGAGLAMATCDIIFLNGGKPANFLDLGGGVKEAQVYQAFKLLTADPKVEAILVNIFGGIVNCAIIANGITKACRELELKVPLVVRLEGTNVQEAQKILNNSGLPITSAIDLEDAAKKAVASVAKK
binding [3]: binds
binding [4]: binds
